Reference: paper doi:10.1101/2025.02.27.640555
Results are given in words; binding and its absence hold for the method and conditions named. Binding seen in cells or lysates may run through a third protein. A yes stands for co-enrichment or nearness to the bait. Other partners may have been found.

Each substance was assayed against HA-tagged SARS-CoV-2 nsp3 (pK1E-HA-SARS-CoV-2-nsp3) (SARS-CoV-2) (UniProt P0DTD1) (assay: affinity purification with mass spectrometry).
For “DEAD-box RNA helicase 5 (DDX5), endogenous in HEK293T (from UniProt P17844 1-614)”, the binding was “binds”. In the case of “DExD-box helicase 39B (DDX39B), endogenous in HEK293T (from UniProt Q13838 1-428)”, the binding is reported as “binds”. With GAPDH (from UniProt P04406 1-335) the binding was “binds”. SRSF1 (from UniProt Q07955 1-248) was tested, and the binding was “binds”. With “Serrate RNA effector molecule homolog (SRRT), endogenous in HEK293T (from UniProt Q9BXP5 1-876)” the binding was “binds”. In the case of “UBA1, endogenous in HEK293T (from UniProt P22314 1-1058)”, the binding is reported as “binds”. For “cleavage and polyadenylation specificity factor subunit 6 (CPSF6), endogenous in HEK293T (from UniProt Q16630 1-551)”, the binding was “binds”. “eukaryotic initiation factor 4A3 (eIF4A3), endogenous in HEK293T (from UniProt P38919 1-411)” was tested, and the binding was “binds”. With “nucleoside diphosphokinase 1 (NME1) (from UniProt P15531 1-152)” the binding was “binds”. “nucleoside diphosphokinase 2 (NME2) (from UniProt P22392 1-152)” was tested, and the binding was “binds”.
